Assay results as given in PubChem BioAssay AID250 (DTP/NCI, 2004).
The list is a part of this screen's results and no random one: it gathers tests that were run many times, whatever their T/C, doses with no T/C, and many T/C values between a quarter and a half above the control. Further doses and runs are listed elsewhere. T/C gives the treated animals as a percentage of the vehicle group. Some entries give survivors of the animals treated and no T/C: the source files T/C as zero there, which appears to mark a toxic dose or a test without result, not a measured value. Some doses without a T/C left all or most animals alive at the check, yet need not have been tolerated: the source hardly ever lists a survival T/C far under the control, and the zero likely stands for such cases as well. Survivors were counted at the toxicity check, usually on the fifth day, unless a day is given; later deaths do not show. Schedules are NCI's codes, taken here to give the interval after Q, in days (D) or hours (H), and the number of doses after X. Some schedules carry Z or #; the key to these is not given. Some molecules as drawn cover several salts, stereoisomers or complexes of the source; a dose is that of the sample tested. Marks such as (2×) give the number of equal values in this list. Some entries hold several experiments; their values stand side by side, smallest first.

System: BDF1 mice, L1210 leukemia sc, survival T/C
Experiment: NCI In Vivo Anticancer Drug Screen. Data for tumor model L1210 Leukemia (subcutaneous) in B6D2F1 (BDF1) mice
Settings: higher T/C = longer survival
Procedure: The antitumor activity of compounds was measured in mice bearing transplantable tumors. Survival or tumor size were measured and the results are expressed as the measurement made in the treated group (T) divided by the measurement made in the vehicle treated control group (C). The tumor model used in this assay is L1210 Leukemia (subcutaneous) in B6D2F1 (BDF1) mice

[1] = T/C endpoint: median survival time, dose: 8.4 mg/kg/injection, schedule: Q01DX Z (sc), vehicle: methylcellulose (MC)
[2] = T/C endpoint: median survival time, dose: 180.0 mg/kg/injection, schedule: Q01DX Z (sc), vehicle: methylcellulose (MC)
[3] = T/C endpoint: median survival time, dose: 300.0 mg/kg/injection, schedule: Q01DX Z (sc), vehicle: methylcellulose (MC)
[4] = T/C endpoint: median survival time, dose: 500.0 mg/kg/injection, schedule: Q01DX Z (sc), vehicle: methylcellulose (MC)
[5] = T/C endpoint: median survival time, dose: 5.0 mg/kg/injection, schedule: Q01DX Z (sc), vehicle: methylcellulose (MC)
[6] = T/C endpoint: median survival time, dose: 39.0 mg/kg/injection, schedule: Q01DX Z (sc), vehicle: methylcellulose (MC)
[7] = T/C endpoint: median survival time, dose: 108.0 mg/kg/injection, schedule: Q01DX Z (sc), vehicle: methylcellulose (MC)
[8] = T/C endpoint: median survival time, dose: 833.0 mg/kg/injection, schedule: Q01DX Z (sc), vehicle: methylcellulose (MC)
[9] = T/C endpoint: median survival time, dose: 60.0 mg/kg/injection, schedule: Q01DX Z (sc), vehicle: saline
[10] = T/C endpoint: median survival time, dose: 100.0 mg/kg/injection, schedule: Q01DX Z (sc), vehicle: saline
[11] = T/C endpoint: median survival time, dose: 65.0 mg/kg/injection, schedule: Q01DX Z (sc), vehicle: methylcellulose (MC)
[12] = T/C endpoint: median survival time, dose: 23.0 mg/kg/injection, schedule: Q01DX Z (sc), vehicle: methylcellulose (MC)
[13] = T/C endpoint: median survival time, dose: 14.0 mg/kg/injection, schedule: Q01DX Z (sc), vehicle: methylcellulose (MC)
[14] = T/C endpoint: median survival time, dose: 108.0 mg/kg/injection, schedule: Q01DX Z (sc), vehicle: water
[15] = T/C endpoint: median survival time, dose: 180.0 mg/kg/injection, schedule: Q01DX Z (sc), vehicle: water

O=c1[nH]c(=S)c2[nH]c(=O)[nH]c2[nH]1
survivor count (T/C endpoint: median survival time, dose: 1.08 mg/kg/injection, schedule: Q01DX Z (sc), vehicle: methylcellulose (MC)): 6 of 10
survivor count (T/C endpoint: median survival time, dose: 1.8 mg/kg/injection, schedule: Q01DX Z (sc), vehicle: methylcellulose (MC)): 6 of 10
survivor count [1]: 4 of 10

NS(=O)(=O)c1ncnc2nc[nH]c12
survivor count [2]: 3 of 8
survivor count [3]: 0 of 8
survivor count [4]: 0 of 8

COC(=O)c1[nH]c(=O)[nH]c(=O)c1F
survivor count (T/C endpoint: median survival time, dose: 2.5 mg/kg/injection, schedule: Q01DX Z (sc), vehicle: methylcellulose (MC)): 3 of 8

O=C(NC(CO)C(=O)O)C(Cl)Cl (stereo not drawn)
survivor count (T/C endpoint: median survival time, dose: 833.0 mg/kg/injection, schedule: Q01DX Z (sc), vehicle: water): 4 of 10

CN(C)c1ccc(/C=C/c2cc[n+](C)c3ccccc23)cc1
survivor count [5]: 0 of 10

COc1cc2c3c(c4ccc(OC)c(OC)c4c2cc1OC)CN1CCC[C@@H]1C3
survivor count (T/C endpoint: median survival time, dose: 39.0 mg/kg/injection, schedule: Q01DX Z (sc), vehicle: carboxymethylcellulose (CMC)): 5 of 8

CCC(=O)O[C@H]1CC[C@H]2[C@@H]3CC[C@H]4CC(=O)[C@H](C)C[C@]4(C)[C@H]3CC[C@]12C
survivor count [6]: 5 of 10
survivor count [7]: 1 of 10
survivor count [2]: 1 of 10
survivor count [3]: 1 of 10 and 5 of 10
survivor count [4]: 3 of 10 and 6 of 10
survivor count [8]: 0 of 10

O=S1OCCS1 (stereo not drawn)
survivor count [9]: 4 of 10
survivor count [10]: 0 of 10

CC(=O)Nc1ccc2c(Nc3ccc(NS(C)(=O)=O)cc3)c3ccccc3nc2c1
survivor count (T/C endpoint: mean survival time, dose: 25.0 mg/kg/injection, schedule: Q01DX009 (sc), vehicle: saline): 10 of 10

COc1cc([C@@H]2c3cc4c(cc3[C@H](O)[C@H]3COC(=O)[C@H]23)OCO4)cc(OC)c1OC
survivor count [6]: 6 of 10
survivor count [11]: 3 of 10
survivor count [7]: 0 of 10
survivor count [2]: 0 of 10

O=S(=O)(Nc1ccccn1)c1ccc(N(CCCl)CCCl)cc1
survivor count [2]: 1 of 10
survivor count [3]: 3 of 10
survivor count [4]: 2 of 10
survivor count [8]: 6 of 10
survivor count (T/C endpoint: median survival time, dose: 1388.0 mg/kg/injection, schedule: Q01DX Z (sc), vehicle: methylcellulose (MC)): 2 of 10

C[C@]12CCC(=O)C=C1CC[C@@H]1[C@@H]2C(=O)C[C@@]2(C)[C@H]1CC[C@]2(O)C(=O)CO
survivor count [4]: 6 of 10

C[C@]12C[C@H](O)[C@H]3[C@@H](CCC4=CC(=O)CC[C@@]43C)[C@@H]1CC[C@@H]2C(=O)CO
survivor count [12]: 3 of 10
survivor count [6]: 3 of 10
survivor count [11]: 4 of 10
survivor count [7]: 2 of 10
survivor count [2]: 1 of 10
survivor count [3]: 2 of 10
survivor count [4]: 1 of 10

O=c1nc2[nH]c(=O)[nH]c(=O)c2n[nH]1
survivor count (T/C endpoint: median survival time, dose: 17.0 mg/kg/injection, schedule: Q01DX Z (sc), vehicle: saline): 6 of 10
survivor count (T/C endpoint: median survival time, dose: 130.0 mg/kg/injection, schedule: Q01DX Z (sc), vehicle: saline): 6 of 10
survivor count (T/C endpoint: median survival time, dose: 216.0 mg/kg/injection, schedule: Q01DX Z (sc), vehicle: saline): 5 of 10

O=C(NO)c1ccncc1
survivor count (T/C endpoint: median survival time, dose: 400.0 mg/kg/injection, schedule: Q01DX009 (ip), vehicle: water): 9 of 10
survivor count (T/C endpoint: median survival time, dose: 600.0 mg/kg/injection, schedule: Q01DX009 (ip), vehicle: water): 1 of 10
survivor count (T/C endpoint: median survival time, dose: 800.0 mg/kg/injection, schedule: Q01DX009 (ip), vehicle: water): 0 of 10

C[n+]1c2ccccc2nc2c(N)cc(N)cc21
survivor count [5]: 3 of 8
survivor count [1]: 4 of 8
survivor count [13]: 5 of 8
survivor count (T/C endpoint: median survival time, dose: 65.0 mg/kg/injection, schedule: Q01DX Z (sc), vehicle: saline): 6 of 10
survivor count [7]: 2 of 8
survivor count (T/C endpoint: median survival time, dose: 108.0 mg/kg/injection, schedule: Q01DX Z (sc), vehicle: saline): 0 of 10

O=C(O)c1ccc([N+](=O)[O-])cc1
survivor count [13]: 6 of 10
survivor count [6]: 4 of 10
survivor count [11]: 3 of 10
survivor count [7]: 4 of 10
survivor count [2]: 3 of 10
survivor count [3]: 4 of 10

O=C(Nc1ccc(C2=NCCN2)cc1)c1ccc(C(=O)Nc2ccc(C3=NCCN3)cc2)cc1
survivor count (T/C endpoint: median survival time, dose: 8.4 mg/kg/injection, schedule: Q01DX Z (sc), vehicle: saline): 4 of 10
survivor count (T/C endpoint: median survival time, dose: 14.0 mg/kg/injection, schedule: Q01DX Z (sc), vehicle: saline): 4 of 10
survivor count (T/C endpoint: median survival time, dose: 39.0 mg/kg/injection, schedule: Q01DX Z (sc), vehicle: saline): 5 of 10
survivor count (T/C endpoint: median survival time, dose: 65.0 mg/kg/injection, schedule: Q01DX Z (sc), vehicle: water): 6 of 10
survivor count [14]: 4 of 10
survivor count [15]: 6 of 10
survivor count (T/C endpoint: median survival time, dose: 500.0 mg/kg/injection, schedule: Q01DX Z (sc), vehicle: water): 6 of 10

CC/C(=C(/CC)c1ccc(O)cc1)c1ccc(O)cc1
survivor count [11]: 5 of 10
survivor count [2]: 6 of 10
survivor count [4]: 6 of 10

O=S(=O)(c1ccc(O)cc1)c1ccc(O)cc1
survivor count [13]: 6 of 10
survivor count [12]: 5 of 10
survivor count [6]: 6 of 10
survivor count [11]: 6 of 10
survivor count [7]: 4 of 10
survivor count [2]: 6 of 10
survivor count [3]: 3 of 10

COc1ccc2cc1Oc1ccc(cc1)C[C@H]1c3cc(c(OC)cc3CCN1C)Oc1c(OC)c(OC)cc3c1[C@H](C2)N(C)CC3
survivor count (T/C endpoint: median survival time, dose: 300.0 mg/kg/injection, schedule: Q01DX009 (sc), vehicle: methylcellulose (MC)): 5 of 8
survivor count (T/C endpoint: median survival time, dose: 600.0 mg/kg/injection, schedule: Q01DX009 (sc), vehicle: methylcellulose (MC)): 1 of 8

COc1cc(NS(C)(=O)=O)ccc1Nc1c2ccccc2nc2c(C)cccc12
survivor count (T/C endpoint: mean survival time, dose: 10.0 mg/kg/injection, schedule: Q01DX009 (ip), vehicle: saline): 10 of 10
survivor count (T/C endpoint: mean survival time, dose: 20.0 mg/kg/injection, schedule: Q01DX009 (ip), vehicle: saline): 10 of 10 (2×)

COS(C)(=O)=O
survivor count [14]: 6 of 10
survivor count [15]: 0 of 10

C=CC(COC(C)=O)N1CC1 (stereo not drawn)
survivor count (T/C endpoint: median survival time, dose: 4.7 mg/kg/injection, schedule: Q01DX Z (sc), vehicle: saline): 1 of 10
survivor count (T/C endpoint: median survival time, dose: 7.8 mg/kg/injection, schedule: Q01DX Z (sc), vehicle: saline): 1 of 10
survivor count (T/C endpoint: median survival time, dose: 13.0 mg/kg/injection, schedule: Q01DX Z (sc), vehicle: saline): 1 of 10
survivor count (T/C endpoint: median survival time, dose: 22.0 mg/kg/injection, schedule: Q01DX Z (sc), vehicle: saline): 1 of 10 and 6 of 10
survivor count (T/C endpoint: median survival time, dose: 36.0 mg/kg/injection, schedule: Q01DX Z (sc), vehicle: saline): 0 of 10
survivor count [9]: 3 of 10
survivor count [10]: 0 of 10

COC1=C(N)C(=O)c2nc(-c3nc(C(=O)O)c(C)c(-c4ccc(OC)c(OC)c4O)c3N)ccc2C1=O
survivor count (T/C endpoint: median survival time, dose: 0.8 mg/kg/injection, schedule: Q01DX009 (ip), vehicle: water): 5 of 10
survivor count (T/C endpoint: median survival time, dose: 0.8 mg/kg/injection, schedule: Q01DX009 (sc), vehicle: water): 9 of 10
survivor count (T/C endpoint: median survival time, dose: 8.0 mg/kg/injection, schedule: Q01DX009 (sc), vehicle: water): 10 of 10

O=c1[nH]cc(N(CCCl)CCCl)c(=O)[nH]1
survivor count (T/C endpoint: median survival time, dose: 14.0 mg/kg/injection, schedule: Q01DX Z (sc), vehicle: other): 9 of 10
